Reference: publication PMC10182982
No constants are given. Whether binding was seen depends on the method and setting. For part of these data: Binding seen in cells or lysates may run through a third protein. Some results given as binding are weak or reduced against the parent protein; the word gives no strength. For part of these data: Sequences can lack the tags named with a protein.

Amino acid sequences for entries named in this document (tags omitted).
UniProt Q16877: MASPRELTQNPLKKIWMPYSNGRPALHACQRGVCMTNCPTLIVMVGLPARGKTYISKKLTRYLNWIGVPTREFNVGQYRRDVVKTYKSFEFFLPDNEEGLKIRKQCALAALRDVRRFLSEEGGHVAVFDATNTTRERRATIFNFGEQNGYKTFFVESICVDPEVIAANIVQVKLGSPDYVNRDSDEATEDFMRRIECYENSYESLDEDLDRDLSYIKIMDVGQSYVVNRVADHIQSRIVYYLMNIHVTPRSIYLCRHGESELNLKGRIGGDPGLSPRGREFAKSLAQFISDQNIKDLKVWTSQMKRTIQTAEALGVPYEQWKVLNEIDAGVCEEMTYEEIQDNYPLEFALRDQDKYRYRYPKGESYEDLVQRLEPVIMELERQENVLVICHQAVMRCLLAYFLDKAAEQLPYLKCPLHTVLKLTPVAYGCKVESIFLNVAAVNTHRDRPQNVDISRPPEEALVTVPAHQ

What was measured:
HA-labeled FBXL7 = target: T1, HA-labeled FBXL7 (UniProt Q9UJT9); test: co-IP; 293T cells with HA-FBXL7 and Myc-PFKFB4; immunoprecipitation with HA or Myc antibody, EBC buffer lysate, overnight 4 °C, Western blot
T1 sequence: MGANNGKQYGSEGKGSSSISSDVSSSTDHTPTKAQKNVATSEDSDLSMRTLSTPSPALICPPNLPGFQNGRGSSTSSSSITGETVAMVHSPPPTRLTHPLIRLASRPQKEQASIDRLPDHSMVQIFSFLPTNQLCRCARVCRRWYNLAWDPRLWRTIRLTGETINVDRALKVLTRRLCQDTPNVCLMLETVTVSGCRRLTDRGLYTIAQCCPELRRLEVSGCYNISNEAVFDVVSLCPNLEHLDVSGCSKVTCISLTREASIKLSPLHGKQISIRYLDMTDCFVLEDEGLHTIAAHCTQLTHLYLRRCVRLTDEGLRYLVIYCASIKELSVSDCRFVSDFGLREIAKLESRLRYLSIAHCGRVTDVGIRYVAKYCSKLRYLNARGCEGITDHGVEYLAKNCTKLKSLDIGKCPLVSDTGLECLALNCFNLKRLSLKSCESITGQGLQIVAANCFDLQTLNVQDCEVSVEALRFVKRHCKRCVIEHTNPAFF

[1] = target: T2, F-box/LRR-repeat protein 7 (FBXL7), endogenous (human (endogenous in 293T)) (UniProt Q9UJT9); test: co-IP; endogenous proteins in 293T lysate (EBC buffer: 50 mM Tris pH 7.5, 120 mM NaCl, 0.5% NP-40), overnight 4 °C, Western blot; precipitating antibody of this panel not told (anti-PFKFB4 is listed in the methods)
T2 sequence: T1 sequence

GST-FBXL7 = target: T3, GST-FBXL7 (UniProt Q9UJT9); test: pull-down; purified GST or GST-FBXL7 on glutathione-Sepharose beads, incubated with 1 µg purified His-PFKFB4 at 4 °C; Western blot with anti-GST and anti-His; both purified
T3 sequence: T1 sequence

Myc-labeled PFKFB4 (from UniProt Q16877 1-469)
binding (HA-labeled FBXL7): binds

6-phosphofructo-2-kinase/fructose-2,6-biphosphatase 4 (PFKFB4), endogenous (from UniProt Q16877 1-469)
binding [1]: binds

His-PFKFB4 (from UniProt Q16877 1-469)
binding (GST-FBXL7): binds
